Data taken from publication PMC10163288.
Some of the results follow.

B1: il10ra_site1_normal_mot_HHH_b1_03094_000000294_0001_1_20_H_._HHH_b2_01952_af2_0001_0000100005_0000001_0 (protein)
chain: SSSSSEEEEKALELVLEALELALRGDPEEAERVLEEALEIAQELGNERLARIIEDLLQALESSSS
B2: il10ra_site1_sap_22_mot_HHH_b2_03891_000000295_0001_1_20_H_._HHH_b1_07341_af2_0001_0000400017_0000001_0_0001_af2pred_0001 (protein)
chain: SSSSSEEERVEELLEEAEQIPDPHEVSQLLAKALELAARAGNEELLRRILEIAIEILEEDSSSSS
B3: il10ra_site1_sap_18_mot_HHH_b2_00406_af2_000000109_0001_1_19_H_._HHH_b1_08169_0001_0000200009_0000001_0_0001_af2pred_0001 (protein)
chain: SSSSSRKEVLRLFIEAIQLLREGNPEEAEKVAEEVLELVEEIGDEALERAIRALLEMIRGSSSSS
B4: il10ra_site1_normal_mot_HHH_b1_05860_000000142_0001_1_19_H_._HHH_b2_02987_af2_0001_0000100006_0000001_0_af2pred_dldesign_0_af2pred (protein)
chain: SSSSNPNERVVALLRRAAELLAEGRPEEARELLEEARRLAEEANDPIALHAVDYLLRQVESSSSS
B5: il10ra_site1_normal_mot_HHH_b1_05357_000000034_0001_23_39_H_._HHH_b2_00942_af2_0001_0000300008_0000001_0 (protein)
chain: SSSSSELEEEVKELLEEAKRIEDLARASHVLIRAYALAVHNKDPELEELVREAAIEVAERRSSSS
B6: il10ra_site1_sap_19_mot_39a7b8d0c4c3fc04bafbda6ce6101d3a_0001_1_af2_000000014_0001_34_48_H_._HHH_b1_02094_0001_0000300034_0000001_0_0001 (protein)
chain: SSSSSDVAEELYELSREAMELLRNGNPEEARRVIEEAIELAEENNNMVFLVVLRFVLEQINSSSS
B7: il10ra_site1_sap_26_mot_HHH_b1_03859_af2_000000004_0001_44_57_H_._HHH_b2_01614_af2_0001_0000800031_0000001_0_0001 (protein)
chain: SSSSDELEEYVKIAARFAENAAKSGSPEIARRILEVMLEVLKRNNNPELFEEVEELLEELSSSSS
B8: il10ra_site1_normal_mot_HHH_b1_08176_000000188_0001_1_20_H_._HHH_b1_00383_af2_0001_0000700029_0000001_0 (protein)
chain: SSSSDEENQEALELSIHAFRLALRGNPEEAEELLRRALELAEEGGNERLARVIRELLQAIKSSSS
B9: il10ra_site1_sap_21_mot_HHH_b2_08172_af2_000000094_0001_41_56_H_._d0d27a57e4302dd0dd5ebafbde421892_0001_1_0001_0000100001_0000001_0_0001_af2pred_dldesign_0_af2p … (protein)
chain: SSSSSVEELAEQALRAARLALEAGDLEGARKALAIARKLAAQSPNAELKARIAALEAEIAASSSS
B10: il10ra_site1_normal_mot_HHH_b2_02736_000000092_0001_22_38_H_._HHH_b1_06879_af2_0001_0000900065_0000002_0 (protein)
chain: SSSSSEEAQRVYELLRRAIELHAEGDEEEAEKVLEEAEELAEKLNNEVFLFAIEFALRLLSSSSS
B11: il10ra_site1_normal_mot_05ca327611f5605f0dd8494b449afcbf_0001_1_000000248_0001_35_51_H_._HHH_b2_04665_0001_0000500015_0000001_0_af2pred_0001 (protein)
chain: SSSSSEESERVLELIREALHIEDPEEAREVLEEARELAEELNNPVLRIAIEFILRDIEAGSSSSS
B12: il10ra_site1_normal_mot_HHH_b2_06979_000000158_0001_42_57_H_._HHH_b1_00897_af2_0001_0000200012_0000003_0_af2pred_dldesign_0_af2pred (protein)
chain: SSSSSQADVQRIVALLREASEIEDPEKRRAVVEEAVALAEKLGNEILLRDARYLLADVEALSSSS
B13: il10ra_site1_normal_mot_HHH_b2_04275_000000272_0001_20_36_H_._HHH_b1_02375_af2_0001_0000400029_0000001_0 (protein)
chain: SSSSSEELQRLYELLREASELQHEGNPEEAEKVLEEAEELARELGNEVLLAVIRFLQRLASSSSS
B14: il10ra_site1_sap_26_mot_HHH_b2_06857_af2_000000179_0001_42_54_H_._HHH_b1_00069_af2_0001_0000100009_0000001_0_0001_af2pred_0001 (protein)
chain: SSSSSEEREEIYRLIREALELLANGNPEEAEEVLEEAERLAKEANSPLFEFALEAARRKVKSSSS
B15: il10ra_site1_sap_24_mot_HHH_b2_00066_000000124_0001_1_17_H_._HHH_b2_07485_0001_0000400008_0000001_0_0001 (protein)
chain: DVVEEVIEKLRKSGDPRLNQLAVSLWLMLHSPDPRFREAAEEVAELLLRGEISPEEAREILVELA
B16: il10ra_site1_normal_mot_HHH_b1_06057_000000129_0001_22_38_H_._HHH_b1_07369_0001_0000100008_0000001_0 (protein)
chain: SSSSTLEESVKFALRVAEQLLELGDPERARELLEKLLKLLEEAGDEELIERVEELLREVEESSSS
B17: il10ra_site1_sap_26_mot_d30c92881be5d2f229e465dffc40e224_0001_af2_000000108_0001_34_47_H_._aff62e40800cfbf30c5099bd910ef069_0001_0001_0000300014_0000001_0_0001 (protein)
chain: SSSSSDEDEREVEELIEELQRIEDTQEFARVYREAAELAWRHQDHEALQRVIRAAAEWIQSSSSS
B18: il10ra_site1_sap_15_mot_HHH_b2_07442_000000239_0001_40_54_H_._HHH_b1_00124_0001_0000300024_0000001_0_0001_1 (protein)
chain: SSSSDEEQSEALRHFLEHLIEAGNKRMLEFAVEFARHAAEVLGDEELKRVIEEAEEFLERGSSSS
B19: il10ra_site1_sap_17_mot_HHH_b1_06786_000000000_0001_1_20_H_._HHH_b2_02987_0001_0000200019_0000001_0_0001 (protein)
chain: SSSSFHEVWRLSREIMEAIREGDEERVRELLEQLEELLEETGDPMVEYLLRVLRLAFEHTFSSSS
B20: il10ra_site1_normal_mot_HHH_b1_04940_000000219_0001_1_18_H_._HHH_b1_01947_0001_0000200016_0000002_0 (protein)
chain: SSSSDEEERRYARLALRFARWLAEAGDHEAVRRFFESVEDAAEQLNDPEIEEILEEIEELLSSSS
B21: il10ra_site1_sap_19_mot_HHH_b1_02881_000000046_0001_1_20_H_._HHH_b2_01166_0001_0000200017_0000001_0_0001 (protein)
chain: SSSSDEEQEELFRLLEELAELAHEGDEEKVEKLTEEVEELARELGNPLFEWQARWLLRRLSSSSS
B22: il10ra_site1_normal_mot_HHH_b2_00984_000000042_0001_1_20_H_._HHH_b1_07343_0001_0000300015_0000001_0 (protein)
chain: SSSSNEEFLRLAQEAVQLAIRLNDPEALQQIWELIKRYAEEGDPRLEEELEELVEELRERGSSSS
B23: il10ra_site1_sap_23_mot_HHH_b2_05343_000000235_0001_19_35_H_._HHH_b2_03978_af2_0001_0000200014_0000001_0_0001 (protein)
chain: SSSSDEEEERKEELEKEIERLEEEGDPRRAAKLLAELIALAFELSDEELLQEAWRIALENSSSSS
B24: il10ra_site1_sap_16_mot_HHH_b2_00564_af2_000000012_0001_18_34_H_._HHH_b1_08052_af2_0001_0000300017_0000001_1_0001 (protein)
chain: SSSSTEEVEELLVEAMELRLEGNPEEAEEVLREALELAREEGNRAAVYLIRQALKALELLSSSSS
B25: il10ra_site1_sap_18_mot_HHH_b1_03900_000000129_0001_1_16_H_._HHH_b1_06046_af2_0001_0000100005_0000002_0_0001_af2pred_0001 (protein)
chain: SSSSSDEEVRERIEELLEEAEQISDEREAAHALFKASRLALELGDKEIARAVDEVAIKLNSSSSS
B26: il10ra_site1_normal_mot_HHH_b2_02933_000000199_0001_1_19_H_._HHH_b1_07434_af2_0001_0000200008_0000001_0_af2pred_dldesign_0_af2pred (protein)
chain: SSSSSSSPREEVLRLIEEASELEDKEKAKEVLEKALELAQELKDELLIDAVQYRLKQISSSSSSS
B27: il10ra_site1_normal_mot_HHH_b1_02809_af2_000000277_0001_40_57_H_._HHH_b1_00768_af2_0001_0000200008_0000001_0 (protein)
chain: SSSSSSDANETAARLIRAAYRGDEELFEELREELEELIERYGDPRLRLALQFAEALFRELSSSSS
B28: il10ra_site1_normal_mot_HHH_b2_03801_000000188_0001_20_36_H_._HHH_b1_01557_0001_0000400022_0000001_0_af2pred_0001 (protein)
chain: SSSSSDRETAERSAKFLLEAAKQLDDDEAVKLTLRAARFTAESVNDEELKEEIEKVIEELSSSSS
B29: il10ra_site1_normal_mot_HHH_b2_04327_000000030_0001_41_55_H_._HHH_b1_05082_0001_0000600034_0000001_0 (protein)
chain: SSSSSEEEEVEELLEEAKQIPDPKEVSRLLAEAVRIAMRAGNEELFEEIWRVAMEIFRRLSSSSS
B30: il10ra_site1_sap_18_mot_HHH_b2_07873_af2_000000172_0001_1_19_H_._HHH_b2_06273_0001_0000100003_0000001_0_0001 (protein)
chain: SSSSEEAFEEVKRLIEEIAQLLEEGDEEKVEELLKELRELAEERNDPIIRHVVELLEKALKSSSS
B31: il10ra_site1_sap_26_mot_HHH_b1_03333_000000091_0001_1_17_H_._HHH_b1_01909_0001_0000300036_0000001_0_0001 (protein)
chain: SSSSDEESRRIMELMRRVSELDQNGNPEEAREVLEEARQLAEEAGNQLLRLQIEYLERLLNSSSS
B32: il10ra_site1_normal_mot_HHH_b1_06994_000000193_0001_40_55_H_._HHH_b1_03437_0001_0000400021_0000002_0 (protein)
chain: SSSSSDEEELVEAALRLAEQVYEAGDPESAKLLLWAAEFLAREIGDEELRELVEEVEEKISSSSS
B33: il10ra_site1_normal_mot_HHH_b2_02337_000000026_0001_38_52_H_._HHH_b1_02776_0001_0000100001_0000001_1 (protein)
chain: SSSSDLEEEIEELLKELEELIKEGDQERISELAQRILRLIAEAQNAELLRRLWELVQAFYSSSSS
B34: il10ra_site1_sap_18_mot_HHH_b1_03859_af2_000000004_0001_44_57_H_._HHH_b2_00424_0001_0000200006_0000001_0_0001_af2pred_dldesign_0_af2pred (protein)
chain: SSSSPEVEARLAEAEKRLEELKEKDDLKAKAALAQEIFDMALETGDPRIQALLQKALAMLKSSSS
B35: il10ra_site1_sap_19_mot_HHH_b2_01205_000000166_0001_1_19_H_._HHH_b1_07939_0001_0000100003_0000002_0_0001 (protein)
chain: SSSSSEEEIEELLKRLEELIREGDTEEAYKLIRRIAELIHELGNDELAKELLRLLRALMRSSSSS
B36: il10ra_site1_sap_19_mot_HHH_b1_06914_000000280_0001_1_18_H_._HHH_b2_02871_af2_0001_0000200012_0000001_0_0001 (protein)
chain: SSSSAEELFKAVEEAIEEAAELWRNGDPEEAERVLEEILEEVEKRGDRIAALALEHLLRVLSSSS
B37: il10ra_site1_sap_23_mot_HHH_b2_02022_af2_000000170_0001_1_16_H_._HHH_b1_03896_0001_0000100006_0000001_0_0001 (protein)
chain: SSSSDLEERIEELIEEAKELLERGDPEEALHLLFEATHLALRLGNEELLQEVWRLFKELASSSSS

What follows are binders tested against il10ra, Q13651 (assay: yeast display titration).

Apparent Kd, inactive:
B1 no binding seen, B2 no binding seen, B3 no binding seen, B4 no binding seen, B5 no binding seen, B6 no binding seen, B7 no binding seen, B8 no binding seen, B9 no binding seen, B10 no binding seen, B11 no binding seen, B12 no binding seen, B13 no binding seen, B14 no binding seen, B15 no binding seen, B16 no binding seen, B17 no binding seen, B18 no binding seen, B19 no binding seen, B20 no binding seen, B21 no binding seen, B22 no binding seen, B23 no binding seen, B24 no binding seen, B25 no binding seen, B26 no binding seen, B27 no binding seen, B28 no binding seen, B29 no binding seen, B30 no binding seen, B31 no binding seen, B32 no binding seen, B33 no binding seen, B34 no binding seen, B35 no binding seen, B36 no binding seen, B37 no binding seen
